# Some of the results follow.
# B1: Latrophilin-3 (Homo sapiens), Q9HAR2 (protein)
# chain: MWPSQLLIFMMLLAPIIHAFSRAPIPMAVVRRELSCESYPIELRCPGTDVIMIESANYGRTDDKICDSDPAQMENIRCYLPDAYKIMSQRCNNRTQCAVVAGPDVFPDPCPGTYKYLEVQYECVPYKVEQKVFLCPGLLKGVYQSEHLFESDHQSGAWCKDPLQASDKIYYMPWTPYRTDTLTEYSSKDDFIAGRPTTTYKLPHRVDGTGFVVYDGALFFNKERTRNIVKFDLRTRIKSGEAIIANANYHDTSPYRWGGKSDIDLAVDENGLWVIYATEQNNGKIVISQLNPYTLRIEGTWDTAYDKRSASNAFMICGILYVVKSVYEDDDNEATGNKIDYIYNTDQSKDSLVDVPFPNSYQYIAAVDYNPRDNLLYVWNNYHVVKYSLDFGPLDSRSGQAHHGQVSYISPPIHLDSELERPSVKDISTTGPLGMGSTTTSTTLRTTTLSPGRSTTPSVSGRRNRSTSTPSPAVEVLDDMTTHLPSASSQIPALEESCEAVEAREIMWFKTRQGQIAKQPCPAGTIGVSTYLCLAPDGIWDPQGPDLSNCSSPWVNHITQKLKSGETAANIARELAEQTRNHLNAGDITYSVRAMDQLVGLLDVQLRNLTPGGKDSAARSLNKAMVETVNNLLQPQALNAWRDLTTSDQLRAATMLLHTVEESAFVLADNLLKTDIVRENTDNIKLEVARLSTEGNLEDLKFPENMGHGSTIQLSANTLKQNGRNGEIRVAFVLYNNLGPYLSTENASMKLGTEALSTNHSVIVNSPVITAAINKEFSNKVYLADPVVFTVKHIKQSEENFNPNCSFWSYSKRTMTGYWSTQGCRLLTTNKTHTTCSCNHLTNFAVLMAHVEVKHSDAVHDLLLDVITWVGILLSLVCLLICIFTFCFFRGLQSDRNTIHKNLCISLFVAELLFLIGINRTDQPIACAVFAALLHFFFLAAFTWMFLEGVQLYIMLVEVFESEHSRRKYFYLVGYGMPALIVAVSAAVDYRSYGTDKVCWLRLDTYFIWSFIGPATLIIMLNVIFLGIALYKMFHHTAILKPESGCLDNIKSWVIGAIALLCLLGLTWAFGLMYINESTVIMAYLFTIFNSLQGMFIFIFHCVLQKKVRKEYGKCLRTHCCSGKSTESSIGSGKTSGSRTPGRYSTGSQSRIRRMWNDTVRKQSESSFITGDINSSASLNREGLLNNARDTSVMDTLPLNGNHGNSYSIASGEYLSNCVQIIDRGYNHNETALEKKILKELTSNYIPSYLNNHERSSEQNRNLMNKLVNNLGSGREDDAIVLDDATSFNHEESLGLELIHEESDAPLLPPRVYSTENHQPHHYTRRRIPQDHSESFFPLLTNEHTEDLQSPHRDSLYTSMPTLAGVAATESVTTSTQTEPPPAKCGDAEDVYYKSMPNLGSRNHVHQLHTYYQLGRGSSDGFIVPPNKDGTPPEGSSKGPAHLVTSL
# Tests used:
# Assay in all cases: glycan array binding signal (z-score within array); higher = stronger binding
# Conditions in all cases: glycan notation: IUPAC condensed, linker removed
# [1] = target: Neu5Ac(a2-3)[GalNAc(b1-4)]Gal(b1-4)Glc
# Procedure, shortened: (§1)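 The binding signal is a Z-score computed within each array and averaged over linkers. Arrays of the same protein sequence at different concentrations or buffers were also averaged together. Data originate from 3228 arrays in the Consortium for Functional Glycomics database, kept only where the protein sequence was available.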
# [2] = target: Neu5Ac(a2-3)[GalNAc(b1-4)]Gal(b1-4)GlcNAc
# Procedure, shortened: as §1
# [3] = target: Neu5Ac(a2-3)[GalNAc(b1-4)]Gal(b1-4)GlcNAc(b1-3)GalNAc
# Procedure, shortened: as §1
# [4] = target: Neu5Ac(a2-3)[Neu5Ac(a2-6)]GalNAc
# Procedure, shortened: as §1
# Neu5Ac(a2-6)Gal = target: Neu5Ac(a2-6)Gal
# Procedure, shortened: as §1
# [5] = target: Neu5Ac(a2-6)Gal(b1-3)GlcNAc(b1-3)[Gal(b1-4)GlcNAc(b1-6)]Gal(b1-4)Glc
# Procedure, shortened: as §1
# Neu5Ac(a2-6)Gal(b1-4)Glc = target: Neu5Ac(a2-6)Gal(b1-4)Glc
# Procedure, shortened: as §1
# [6] = target: Neu5Ac(a2-6)Gal(b1-4)GlcNAc
# Procedure, shortened: as §1
# [7] = target: Neu5Ac(a2-6)Gal(b1-4)GlcNAc(b1-2)Man(a1-3)Man(b1-4)GlcNAc(b1-4)GlcNAc
# Procedure, shortened: as §1
# [8] = target: Neu5Ac(a2-6)Gal(b1-4)GlcNAc(b1-2)Man(a1-3)[Gal(b1-4)GlcNAc(b1-2)Man(a1-6)]Man(b1-4)GlcNAc(b1-4)GlcNAc
# Procedure, shortened: as §1
# [9] = target: Neu5Ac(a2-6)Gal(b1-4)GlcNAc(b1-2)Man(a1-3)[GlcNAc(b1-2)Man(a1-6)]Man(b1-4)GlcNAc(b1-4)GlcNAc
# Procedure, shortened: as §1
# [10] = target: Neu5Ac(a2-6)Gal(b1-4)GlcNAc(b1-2)Man(a1-3)[GlcNAc(b1-2)Man(b1-4)GlcNAc(b1-2)Man(a1-6)]Man(b1-4)GlcNAc(b1-4)GlcNAc
# Procedure, shortened: as §1
# [11] = target: Neu5Ac(a2-6)Gal(b1-4)GlcNAc(b1-2)Man(a1-3)[Man(a1-6)]Man(b1-4)GlcNAc(b1-4)GlcNAc
# Procedure, shortened: as §1
# [12] = target: Neu5Ac(a2-6)Gal(b1-4)GlcNAc(b1-2)Man(a1-3)[Neu5Ac(a2-6)Gal(b1-4)GlcNAc(b1-2)Man(a1-6)]Man(b1-4)GlcNAc(b1-4)GlcNAc
# Procedure, shortened: as §1
# [13] = target: Neu5Ac(a2-6)Gal(b1-4)GlcNAc(b1-2)Man(a1-3)[Neu5Ac(a2-6)Gal(b1-4)GlcNAc(b1-2)Man(a1-6)]Man(b1-4)GlcNAc(b1-4)[Fuc(a1-6)]GlcNAc
# Procedure, shortened: as §1
# [14] = target: Neu5Ac(a2-6)Gal(b1-4)GlcNAc(b1-2)Man(a1-6)Man(b1-4)GlcNAc(b1-4)GlcNAc
# Procedure, shortened: as §1
# [15] = target: Neu5Ac(a2-6)Gal(b1-4)GlcNAc(b1-2)Man(a1-6)[Gal(b1-4)GlcNAc(b1-2)Man(a1-3)]Man(b1-4)GlcNAc(b1-4)GlcNAc
# Procedure, shortened: as §1
# [16] = target: Neu5Ac(a2-6)Gal(b1-4)GlcNAc(b1-2)Man(a1-6)[GlcNAc(b1-2)Man(a1-3)]Man(b1-4)GlcNAc(b1-4)GlcNAc
# Procedure, shortened: as §1
# [17] = target: Neu5Ac(a2-6)Gal(b1-4)GlcNAc(b1-2)Man(a1-6)[Man(a1-3)]Man(b1-4)GlcNAc(b1-4)GlcNAc
# Procedure, shortened: as §1
# [18] = target: Neu5Ac(a2-6)Gal(b1-4)GlcNAc(b1-3)Gal(b1-3)GlcNAc
# Procedure, shortened: as §1
# [19] = target: Neu5Ac(a2-6)Gal(b1-4)GlcNAc(b1-3)Gal(b1-4)GlcNAc
# Procedure, shortened: as §1
# [20] = target: Neu5Ac(a2-6)Gal(b1-4)GlcNAc(b1-3)Gal(b1-4)GlcNAc(b1-3)Gal(b1-4)GlcNAc
# Procedure, shortened: as §1
# [21] = target: Neu5Ac(a2-6)Gal(b1-4)GlcNAc(b1-3)Gal(b1-4)[Fuc(a1-3)]GlcNAc(b1-3)Gal(b1-4)[Fuc(a1-3)]GlcNAc
# Procedure, shortened: as §1
# [22] = target: Neu5Ac(a2-6)Gal(b1-4)GlcNAc(b1-3)GalNAc
# Procedure, shortened: as §1
# [23] = target: Neu5Ac(a2-6)Gal(b1-4)GlcNAc(b1-3)[Neu5Ac(a2-6)Gal(b1-4)GlcNAc(b1-6)]GalNAc
# Procedure, shortened: as §1
# [24] = target: Neu5Ac(a2-6)Gal(b1-4)GlcNAc(b1-6)GalNAc
# Procedure, shortened: as §1
# [25] = target: Neu5Ac(a2-6)Gal(b1-4)GlcNAc(b1-6)[Gal(b1-3)GlcNAc(b1-3)]Gal(b1-4)Glc
# Procedure, shortened: as §1
binder,measurement,setting,value
B1,glycan array binding signal (z-score),[1],0.355
same,glycan array binding signal (z-score),[2],-0.406
same,glycan array binding signal (z-score),[3],-0.886
same,glycan array binding signal (z-score),[4],-1.4
same,glycan array binding signal (z-score),Neu5Ac(a2-6)Gal,-0.216
same,glycan array binding signal (z-score),[5],-0.989
same,glycan array binding signal (z-score),Neu5Ac(a2-6)Gal(b1-4)Glc,1.15
same,glycan array binding signal (z-score),[6],-0.124
same,glycan array binding signal (z-score),[7],-0.74
same,glycan array binding signal (z-score),[8],-1.06
same,glycan array binding signal (z-score),[9],-1.62
same,glycan array binding signal (z-score),[10],-0.156
same,glycan array binding signal (z-score),[11],1.52
same,glycan array binding signal (z-score),[12],-0.161
same,glycan array binding signal (z-score),[13],-0.459
same,glycan array binding signal (z-score),[14],0.421
same,glycan array binding signal (z-score),[15],-0.625
same,glycan array binding signal (z-score),[16],-0.033
same,glycan array binding signal (z-score),[17],-0.818
same,glycan array binding signal (z-score),[18],0.013
same,glycan array binding signal (z-score),[19],-0.412
same,glycan array binding signal (z-score),[20],-1.29
same,glycan array binding signal (z-score),[21],2.21
same,glycan array binding signal (z-score),[22],-0.672
same,glycan array binding signal (z-score),[23],0.177
same,glycan array binding signal (z-score),[24],-0.06
same,glycan array binding signal (z-score),[25],0.853

# A run of entries from further up, as a working copy:
binder,measurement,setting,value
B1,glycan array binding signal (z-score),[22],-0.672
same,glycan array binding signal (z-score),[23],0.177
